From publication PMC7080674 come the findings set out here.

Protein sequences, listed by entry. Tags and fused reporters are not part of them. Lines headed by an entry give the natural chain unless they say otherwise; changes in a name come on top. Residues count along the entry.
UniProt P24063: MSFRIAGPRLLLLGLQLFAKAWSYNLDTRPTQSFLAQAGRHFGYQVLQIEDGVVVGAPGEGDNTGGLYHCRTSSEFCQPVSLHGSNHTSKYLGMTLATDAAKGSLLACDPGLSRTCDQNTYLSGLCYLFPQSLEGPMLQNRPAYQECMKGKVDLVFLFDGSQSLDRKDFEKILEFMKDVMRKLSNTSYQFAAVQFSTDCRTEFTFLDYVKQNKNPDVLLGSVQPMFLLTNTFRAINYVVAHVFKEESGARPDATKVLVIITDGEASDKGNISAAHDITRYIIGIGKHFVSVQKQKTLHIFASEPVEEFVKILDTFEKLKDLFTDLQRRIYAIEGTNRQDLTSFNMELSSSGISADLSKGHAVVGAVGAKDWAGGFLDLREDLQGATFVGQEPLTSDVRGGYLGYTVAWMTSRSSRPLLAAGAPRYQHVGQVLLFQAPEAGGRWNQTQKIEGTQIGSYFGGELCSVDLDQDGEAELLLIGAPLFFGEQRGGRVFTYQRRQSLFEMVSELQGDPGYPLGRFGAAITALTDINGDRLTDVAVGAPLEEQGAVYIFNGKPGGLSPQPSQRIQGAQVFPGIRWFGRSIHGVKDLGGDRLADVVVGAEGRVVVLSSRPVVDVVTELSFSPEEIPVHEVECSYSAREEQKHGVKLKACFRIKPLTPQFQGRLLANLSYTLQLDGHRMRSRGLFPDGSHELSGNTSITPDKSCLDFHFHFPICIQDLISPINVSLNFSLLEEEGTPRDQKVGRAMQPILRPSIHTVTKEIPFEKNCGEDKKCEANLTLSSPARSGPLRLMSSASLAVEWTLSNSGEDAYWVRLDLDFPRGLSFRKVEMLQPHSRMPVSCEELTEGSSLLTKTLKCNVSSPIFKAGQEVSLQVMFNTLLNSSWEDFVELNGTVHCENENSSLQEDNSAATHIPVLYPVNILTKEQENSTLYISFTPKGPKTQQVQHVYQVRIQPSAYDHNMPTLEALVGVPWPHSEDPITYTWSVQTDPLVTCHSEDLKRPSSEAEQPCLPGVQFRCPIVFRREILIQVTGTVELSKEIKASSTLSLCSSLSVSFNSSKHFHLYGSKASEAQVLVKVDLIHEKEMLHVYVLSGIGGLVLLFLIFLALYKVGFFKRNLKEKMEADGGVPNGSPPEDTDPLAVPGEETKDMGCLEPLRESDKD
UniProt P11835: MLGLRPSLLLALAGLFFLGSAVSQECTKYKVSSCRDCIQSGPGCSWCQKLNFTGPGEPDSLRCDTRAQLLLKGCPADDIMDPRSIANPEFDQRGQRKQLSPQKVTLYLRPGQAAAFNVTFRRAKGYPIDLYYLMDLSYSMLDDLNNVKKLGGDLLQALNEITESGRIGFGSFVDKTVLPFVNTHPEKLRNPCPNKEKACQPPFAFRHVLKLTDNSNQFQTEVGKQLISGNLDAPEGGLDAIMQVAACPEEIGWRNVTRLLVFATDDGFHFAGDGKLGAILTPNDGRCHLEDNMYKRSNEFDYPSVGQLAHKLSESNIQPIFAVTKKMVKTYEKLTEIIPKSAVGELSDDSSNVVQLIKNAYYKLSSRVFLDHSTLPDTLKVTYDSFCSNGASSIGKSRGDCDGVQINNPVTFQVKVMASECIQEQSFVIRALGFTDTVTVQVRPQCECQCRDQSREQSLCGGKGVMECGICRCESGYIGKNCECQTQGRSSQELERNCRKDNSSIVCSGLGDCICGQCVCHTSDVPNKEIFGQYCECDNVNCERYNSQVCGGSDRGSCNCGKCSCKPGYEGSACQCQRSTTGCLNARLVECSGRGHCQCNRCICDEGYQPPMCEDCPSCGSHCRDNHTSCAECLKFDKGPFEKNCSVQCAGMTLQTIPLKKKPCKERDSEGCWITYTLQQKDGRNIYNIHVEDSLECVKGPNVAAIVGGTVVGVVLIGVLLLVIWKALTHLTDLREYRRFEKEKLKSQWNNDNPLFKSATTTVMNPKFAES
UniProt P13597, residues 28-485: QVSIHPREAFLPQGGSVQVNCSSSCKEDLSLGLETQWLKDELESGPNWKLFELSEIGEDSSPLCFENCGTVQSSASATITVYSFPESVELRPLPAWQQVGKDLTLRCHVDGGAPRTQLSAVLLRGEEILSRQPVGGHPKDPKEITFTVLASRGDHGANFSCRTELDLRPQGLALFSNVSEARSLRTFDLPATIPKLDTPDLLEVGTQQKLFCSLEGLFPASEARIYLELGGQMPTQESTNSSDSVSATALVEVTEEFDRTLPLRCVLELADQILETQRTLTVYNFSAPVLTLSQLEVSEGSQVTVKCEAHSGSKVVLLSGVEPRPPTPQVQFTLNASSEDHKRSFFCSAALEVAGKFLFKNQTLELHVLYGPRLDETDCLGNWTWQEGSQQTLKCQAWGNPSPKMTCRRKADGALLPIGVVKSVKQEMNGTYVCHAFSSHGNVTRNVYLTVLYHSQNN

The assay addresses LFA1 (integrin αLβ2) (mouse (endogenous in neutrophils)) (UniProt P24063+P11835). Put plainly: flow cytometry on cells; murine neutrophils (WT or TRPC6-/-) from overnight cultures, incubated with CD11b antibody (clone M1/70, 10 ug/ml) to avoid Mac-1 binding; ICAM-1/Fc 20 ug/ml with allophycocyanin-conjugated IgG (Fc specific); unstimulated or stimulated with CXCL1 (0.1 ug/ml, 3 min); only the binder purified. (In general: In flow cytometry, cells or beads pass a laser one at a time.)

No constants are given. Whether binding was seen depends on the method and setting. Some results given as binding are weak or reduced against the parent protein; the word gives no strength.

With “ICAM-1/Fc (from UniProt P13597 28-485) (Fc fusion)”, the binding entry is “binds”.
